Paper PMC8396726

What was measured:
[1] = target: PfGCN5-ΔBrD::GFP (P. falciparum 3D7); experiment: affinity purification with mass spectrometry; IP with GFP-Trap from trophozoite nuclear extracts of the PfGCN5::GFP, GCN5-ΔBrD::GFP and PHD1-ΔPHD::GFP lines; LC-MS/MS; SAINT probability >94%, FDR <1%
[2] = target: PfPHD1-ΔPHD::GFP (P. falciparum 3D7); experiment: as above

B1: PF3D7_1019700 (protein, UniProt Q8IJK5 1-1074)
chain: MYKSERHKDITHSNRTKRNEQKNSDILNKVSNEKCLENNTNESLCNKMDNCINKQNNINRQNDINRQNDINSQNSVGSQNNRNHKKCVNKSRQKYNKIERKKKKNASSLLGDNCVQETEDTHHEKSLNDDCLNMEQNKEIVNDHLKEIEKKNSDNEIKADINDEKLQLERDYVIEAADQNKDALTLCVCVEDDRKKYVTKEKVNEKDMKGDNNEKDMEYDNNKKDMEYDQDEKDMEYDQDVKDIEGDNNKKDMEDDKNEKDMENDNNKKDMEGDQDKKDMEGDQDKKDMEGDNNKKDMEGDKNEKDMEGDNNKKDMEGDKNEKDMEGDNNKKDMEGDKNEKDMEGDNNKKDMEGDNNKKDMEGDKDAKDIICDNNITLKNKIPINNLNDNNIVCNYKHRDTIEEADNNYVVENITQVNNIDEIKLKRKRKRKNNFSEYIQEEREDNFIKDKNYNALKTLKDSKRILLNCNKYIEDNNMYKIEDNVQNNNVCGNLLCEEKCNNYRQIDKNEKYEKNEKNDKYDKYEKYDKYENYDKYEKYDKYEKYDKYENYDKYEKYDKYEKYDKYEKYDKYEKYDKYEKNDDSRKDNIDICNKINLPRVYDNIIQSDSNNLNKYKGSSFALIIHEISDLLSLITTVDKSKNKNKIKLVNIGHKLNTLMRSHYERIYDCDNSLVSIINKIKKLYKCYRSMEEKYLKKTKKQNINININTNTNTNTNTNKIEKENVAGNNDEEDPNDGINILHDDLLKEEINNIDNNIKNDINKYTIKCNNNNEKLIQDPFFQNEFVQGIDNYINQKDENNCHDNIKDKIDTLNCYINEKLNMDCQNIFIQKGDYKKVLNQMGEKAIYEGNEKDNHKGNNTMEHIKINDDNKTMEHIKINDENKTMEHIKINDENNTMEHIKINDENNTMEHIKINDENKTMEHIKINDENKTMEHININDENNTMEHIKINDENKTMEHININDENNTMEHIKINDENNTMEHINKSIIKNIGSMESKSTAVTYKECELSLKEEKEEYIEYLKKKKKILKELDKCNSHFFFTYFHKGELIEYLHNQINMHIVEFDKIYQLYISH
binding [1]: binds
binding [2]: no binding

No constants are given. Whether binding was seen depends on the method and setting. In cells and extracts the contact can be indirect. A yes stands for co-enrichment or nearness to the bait. Other partners may have been found. For some assays here: No binding means not detected with the bait.
